From article PMC5655499, “Peptide array-based screening reveals a large number of proteins interacting with the ankyrin-repeat domain of the zDHHC17 S-acyltransferase” (The Journal of Biological Chemistry, 2017)
No constants are given. Whether binding was seen depends on the method and setting. For part of these data: Binding seen in cells or lysates may run through a third protein. For part of these data: Where a sequence is shown, tags or fusion partners need not be part of it. Some results given as binding are weak or reduced against the parent protein; the word gives no strength.

Protein sequences, listed by entry. Tags and fused reporters are not part of them. Residues count along the entry.
UniProt Q8IUH5, residues 51-304: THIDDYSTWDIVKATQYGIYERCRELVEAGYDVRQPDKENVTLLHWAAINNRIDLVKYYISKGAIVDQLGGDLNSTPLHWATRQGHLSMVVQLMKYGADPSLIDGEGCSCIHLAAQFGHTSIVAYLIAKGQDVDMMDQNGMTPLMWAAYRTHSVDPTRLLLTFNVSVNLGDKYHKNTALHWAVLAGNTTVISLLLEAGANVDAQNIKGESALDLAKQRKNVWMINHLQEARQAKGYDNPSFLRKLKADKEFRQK
UniProt Q80TN5: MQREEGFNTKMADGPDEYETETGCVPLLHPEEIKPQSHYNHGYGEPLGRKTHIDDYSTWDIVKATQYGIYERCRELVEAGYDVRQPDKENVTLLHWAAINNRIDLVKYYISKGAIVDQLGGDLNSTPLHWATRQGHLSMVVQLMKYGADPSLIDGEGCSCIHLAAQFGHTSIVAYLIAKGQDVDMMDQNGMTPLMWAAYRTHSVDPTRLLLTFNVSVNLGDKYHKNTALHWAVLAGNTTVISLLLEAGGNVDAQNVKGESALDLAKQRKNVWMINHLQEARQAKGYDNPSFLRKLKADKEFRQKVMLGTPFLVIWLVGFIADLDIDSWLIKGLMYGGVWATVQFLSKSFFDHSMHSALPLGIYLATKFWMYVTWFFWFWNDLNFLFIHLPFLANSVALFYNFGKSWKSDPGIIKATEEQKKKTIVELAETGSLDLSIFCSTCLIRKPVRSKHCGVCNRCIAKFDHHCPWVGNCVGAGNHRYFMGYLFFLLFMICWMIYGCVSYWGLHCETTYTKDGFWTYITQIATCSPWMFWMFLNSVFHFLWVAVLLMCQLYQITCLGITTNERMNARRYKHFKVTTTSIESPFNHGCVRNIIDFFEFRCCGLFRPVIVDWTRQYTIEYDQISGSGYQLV

T1: murine zDHHC13-Cub-PLV bait (mouse) (UniProt Q9CWU2)
T1 sequence: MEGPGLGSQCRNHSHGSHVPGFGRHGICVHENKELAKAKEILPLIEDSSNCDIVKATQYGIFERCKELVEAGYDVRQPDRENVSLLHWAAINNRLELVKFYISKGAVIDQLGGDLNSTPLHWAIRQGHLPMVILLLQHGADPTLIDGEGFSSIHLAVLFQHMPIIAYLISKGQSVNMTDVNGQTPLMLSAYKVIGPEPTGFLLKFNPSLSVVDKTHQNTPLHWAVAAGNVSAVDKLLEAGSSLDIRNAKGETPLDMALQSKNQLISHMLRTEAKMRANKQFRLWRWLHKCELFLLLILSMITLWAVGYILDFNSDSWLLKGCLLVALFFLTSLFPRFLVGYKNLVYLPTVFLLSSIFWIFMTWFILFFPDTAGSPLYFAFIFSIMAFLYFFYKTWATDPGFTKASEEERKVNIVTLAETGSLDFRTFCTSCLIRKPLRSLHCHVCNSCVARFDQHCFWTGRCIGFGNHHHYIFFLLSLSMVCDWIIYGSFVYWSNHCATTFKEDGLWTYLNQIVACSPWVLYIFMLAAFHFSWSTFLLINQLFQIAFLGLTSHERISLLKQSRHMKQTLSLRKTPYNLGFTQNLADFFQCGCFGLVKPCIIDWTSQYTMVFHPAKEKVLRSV


Tests used:
[1] = biological target: ARzD17-His (51–304 amino acids of human zDHHC17) (human) (UniProt Q8IUH5); assay: pull-down; HEK293T lysates with EGFP-tagged proteins incubated with 50 μg ARzD17-His (51–304) and Ni-NTA agarose, 2 h at 4 °C; washes 20 mM Tris-HCl pH 8, 300 mM NaCl, 1% Triton, 40 mM imidazole; blot with GFP antibody; only the target purified
[2] = biological target: T1, murine zDHHC13-Cub-PLV bait (mouse); assay: two-hybrid; mating-based split-ubiquitin system (SUS) in yeast; zDHHC-Cub-PLV bait, NubG-2HA-tagged prey; growth on SD media lacking adenine and histidine
[3] = biological target: murine zDHHC17-Cub-PLV bait (mouse) (UniProt Q80TN5); assay: as above

binding [1]	binding [2]	binding [3]	Binder
no binding			EGFP-tagged EVL isoform 5 (protein, UniProt Q9UI08-5 1-397) MATSEQSICQARASVMVYDDTSKKWVPIKPGQQGFSRINIYHNTASNTFRVVGVKLQDQQVVINYSIVKGLKYNQATPTFHQWRDARQVYGLNFASKEEATTFSNAMLFALNIMNSQEGGPSSQRQVQNGPSPDEMDIQRRQVMEQHQQQRQESLERRTSATGPILPPGHPSSAASAPVSCSGPPPPPPPPVPPPPTGATPPPPPPLPAGGAQGSSHDESSMSGLAAAIAGAKLRRVQRPEDASGGSSPSGTSKSDANRASSGGGGGGLMEEMNKLLAKRRKAASQSDKPAEKKEDESQMEDPSTSPSPGTRAASQPPNSSEAGRKPWERSNSVEKPVSSILSRMKPAGSVNDMALDAFDLDRMKQEILEEVVRELHKVKEEIIDAIRQELSGISTT
	binds	binds	NubG-2HA-SPRED2, wild-type murine SPRED2 (protein, UniProt Q924S7 1-410) MTEETHPDDDSYIVRVKAVVMTRDDSSGGWFPQEGGGISRVGVCKVMHPEGNGRSGFLIHGERQKDKLVVLECYVRKDLVYTKANPTFHHWKVDNRKFGLTFQSPADARAFDRGVRKAIEDLIEGSTTSSSTLHNEAELGDDDVFTTATDSSSNSSQKREPTTRTISSPTSCEHRKIYTLDPYPMDHYHPDQRLPRSYPQVTFPEDDEEIVRINPREKIWMTGYEDYRHAPVRGKYLDTTEDADSYVRFAKGEVPKHEYTYPYVDSSDFGFGEDPKGSVIKTQPPRAKSRRRKENGERSRCVYCRDMFNHEENRRGHCQDAPDAVRTCIRRVSCMWCADSMLYHCMSDPEGDYTDPCSCDTSDEKFCLRWMALIALSFLAPCMCCYLPLRACHRCGVMCRCCGGKHKAAA
